From publication PMC10137428
Results are given in words; binding and its absence hold for the method and conditions named. In cells and extracts the contact can be indirect. Some results given as binding are weak or reduced against the parent protein; the word gives no strength.

Molecular target: VSV-tagged RAF-1 (UniProt P04049)
Assay: co-IP; VSV-tagged RAF-1 expressed from pcDNA5 in HEK 293T cells; VSV beads used to catch RAF-1-binding proteins; SODD detected by western blot

B1: Silencer of death domains (SODD; Bcl2-associated athanogene 4, BAG4) (protein, UniProt O95429 1-457)
chain: MSALRRSGYGPSDGPSYGRYYGPGGGDVPVHPPPPLYPLRPEPPQPPISWRVRGGGPAETTWLGEGGGGDGYYPSGGAWPEPGRAGGSHQEQPPYPSYNSNYWNSTARSRAPYPSTYPVRPELQGQSLNSYTNGAYGPTYPPGPGANTASYSGAYYAPGYTQTSYSTEVPSTYRSSGNSPTPVSRWIYPQQDCQTEAPPLRGQVPGYPPSQNPGMTLPHYPYGDGNRSVPQSGPTVRPQEDAWASPGAYGMGGRYPWPSSAPSAPPGNLYMTESTSPWPSSGSPQSPPSPPVQQPKDSSYPYSQSDQSMNRHNFPCSVHQYESSGTVNNDDSDLLDSQVQYSAEPQLYGNATSDHPNNQDQSSSLPEECVPSDESTPPSIKKIIHVLEKVQYLEQEVEEFVGKKTDKAYWLLEEMLTKELLELDSVETGGQDSVRQARKEAVCKIQAILEKLEKKGL
Question: B1 was tested. Which binding did it give?
Answer: Its binding is “binds”.
